# Reference: paper PMC7862700
# The chains behind the UniProt entries cited, without tags or fusion partners. Where a name states a change or a piece, a line headed by the entry shows the natural chain unless it says otherwise.
# UniProt P32519: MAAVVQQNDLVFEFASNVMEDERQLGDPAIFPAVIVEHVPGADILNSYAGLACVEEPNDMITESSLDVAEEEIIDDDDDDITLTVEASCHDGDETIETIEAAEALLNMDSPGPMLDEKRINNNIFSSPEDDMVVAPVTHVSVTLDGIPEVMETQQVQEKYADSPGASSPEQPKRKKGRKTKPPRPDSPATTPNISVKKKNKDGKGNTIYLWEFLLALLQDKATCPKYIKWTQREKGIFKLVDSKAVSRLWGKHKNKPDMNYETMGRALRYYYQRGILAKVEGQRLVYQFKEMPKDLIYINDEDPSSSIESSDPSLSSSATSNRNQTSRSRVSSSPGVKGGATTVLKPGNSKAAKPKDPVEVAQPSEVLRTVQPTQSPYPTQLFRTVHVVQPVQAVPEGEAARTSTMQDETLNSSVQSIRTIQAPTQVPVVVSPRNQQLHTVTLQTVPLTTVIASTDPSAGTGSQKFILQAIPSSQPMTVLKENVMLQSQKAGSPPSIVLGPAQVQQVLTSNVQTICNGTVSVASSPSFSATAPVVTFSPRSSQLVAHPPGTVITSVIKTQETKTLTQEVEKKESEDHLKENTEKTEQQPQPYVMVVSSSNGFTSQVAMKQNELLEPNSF
# Only a part is listed here, and it is no random draw. For some of these results: At the low end of the ranking the order means little. This is one part of the list. For some of these results: The source does not settle which construct or isoform was used.
# Assays:
# Test in all cases: DAPPL (digital affinity profiling via proximity ligation, sequencing)
# Settings in all cases: 10 mM Tris-HCl pH 7.5, 50 mM NaCl, 1 mM DTT, 4% glycerol, room temperature, 30 min; GST-TFs on glutathione beads, 16-mer random dsDNA library, 0.1% …; high values mean tight binding; double strand, one strand shown; scale: fold enrichment (6-mer frequency, TF over GST control)
# ELF1 = ELF1 (UniProt P32519)
# ETV4 = molecular target: T1, ETV4 (UniProt P43268)
# T1 sequence: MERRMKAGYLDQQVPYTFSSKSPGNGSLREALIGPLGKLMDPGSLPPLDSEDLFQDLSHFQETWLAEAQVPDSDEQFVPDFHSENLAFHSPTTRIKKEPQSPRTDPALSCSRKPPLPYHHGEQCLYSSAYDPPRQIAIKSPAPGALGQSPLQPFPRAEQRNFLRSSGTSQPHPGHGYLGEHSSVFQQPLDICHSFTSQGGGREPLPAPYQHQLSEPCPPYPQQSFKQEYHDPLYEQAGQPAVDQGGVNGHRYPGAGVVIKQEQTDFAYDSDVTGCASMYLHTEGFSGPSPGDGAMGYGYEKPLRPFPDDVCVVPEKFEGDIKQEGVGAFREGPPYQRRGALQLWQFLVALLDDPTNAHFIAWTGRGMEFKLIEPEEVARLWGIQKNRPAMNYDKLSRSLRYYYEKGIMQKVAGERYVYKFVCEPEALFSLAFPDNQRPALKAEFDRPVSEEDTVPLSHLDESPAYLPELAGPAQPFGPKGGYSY
# ERF = molecular target: T2, ERF (UniProt P50548)
# T2 sequence: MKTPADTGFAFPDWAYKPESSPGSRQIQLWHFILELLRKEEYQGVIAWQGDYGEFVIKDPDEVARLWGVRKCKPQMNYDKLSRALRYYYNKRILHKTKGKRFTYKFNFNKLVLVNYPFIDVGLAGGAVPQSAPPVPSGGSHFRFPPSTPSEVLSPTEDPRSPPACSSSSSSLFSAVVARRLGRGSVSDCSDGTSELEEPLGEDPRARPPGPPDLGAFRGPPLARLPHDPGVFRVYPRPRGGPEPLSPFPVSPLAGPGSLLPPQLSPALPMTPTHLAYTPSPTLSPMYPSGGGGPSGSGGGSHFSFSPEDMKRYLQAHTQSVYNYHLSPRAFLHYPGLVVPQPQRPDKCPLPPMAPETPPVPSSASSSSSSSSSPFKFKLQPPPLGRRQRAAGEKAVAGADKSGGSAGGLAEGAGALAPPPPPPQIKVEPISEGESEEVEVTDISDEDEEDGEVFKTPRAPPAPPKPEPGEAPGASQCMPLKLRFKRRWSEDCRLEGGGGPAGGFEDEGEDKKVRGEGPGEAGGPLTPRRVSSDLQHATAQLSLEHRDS
Sequence,binding signal (ELF1),binding signal (ETV4),binding signal (ERF)
CAGATT,1,1.03,0.96
ATTCAA,,1.27,1.38
CGAGCA,1.14,1.15,1.17
TCGAGC,0.962,1.03,1.03
ACCTCA,1.23,1.23,1.23
AATCCG,,1.54,1.5
TGACAA,,1.25,1.23
TGTTGA,1.16,1.08,1.13
ATTCTT,1.51,1.4,1.3
ATTGTA,,1.27,1.27
ATCTCA,,1.21,1.07
TCTCTC,1.35,1.36,1.31
ACCCTC,,1.12,1.19
ACGAAT,,1.23,1.17
CTGGGC,1.24,1.13,0.987
TCTGTG,1.12,1.25,1.15
CTCCAT,1.34,1.35,1.37
GCTCAT,1.36,1.23,1.31

Sequence,binding signal (ELF1),binding signal (ETV4),binding signal (ERF)
TGACTG,,1.07,1.15
TAATAT,1.27,1.27,1.35
ATGGGC,,1.36,1.17
AAAAAT,1.31,1.23,1.35
ATGCTC,,1.5,1.33
TCGATA,1.11,1.1,1.24
GTCTCG,,1.17,1.29
TGACTA,1.09,1.2,1.14
ATATAA,,1.13,1.16
CAATTA,,1.11,1.13
GGGTTC,,1.02,0.875
CAACGA,1.1,1.12,1.05
AAGGGT,,0.991,0.998
CTTTGA,1.26,1.31,1.18
TCATCT,1.3,1.17,1.21
CTTCGA,,1.38,1.41
CACCTT,,1.23,1.33

# Record cards, as listed above:
# TGACTA in the list: binding signal (ELF1) = 1.09; binding signal (ETV4) = 1.2; binding signal (ERF) = 1.14
# ATATAA in the list: binding signal (ETV4) = 1.13; binding signal (ERF) = 1.16
# CTTCGA in the list: binding signal (ETV4) = 1.38; binding signal (ERF) = 1.41
